Values of other authors as cited in patent publication US7517540B2, “Cranberry seed oil extract and compositions containing components thereof” (priority 1999, dated 2009).

## CC/C(=C(\c1ccccc1)c1ccc(OCCN(C)C)cc1)c1ccccc1 [Tamoxifen]
MDA-MB-435; MDA-MB-435 (estrogen receptor-negative), combinations with tamoxifen 1:1
  IC50, inhibition of proliferation of MDA-MB-435: 90 ± 4 mg/L
MDA-MB-435; MDA-MB-435, alone, 1:1 or 1:1:1 combinations
  Inhibition of proliferation, MDA-MB-435 (Table 5): 90
MCF-7; MCF-7 (estrogen receptor-positive), combinations with tamoxifen 1:1
  IC50, inhibition of proliferation of MCF-7: 0.04 ± 0.001 mg/L
MCF-7; MCF-7, alone, 1:1 or 1:1:1 combinations
  Inhibition of proliferation, MCF-7 (Table 5): 0.04
